Reference: the supplement of paper PMC12823440, “Inhibitors supercharge kinase turnover through native proteolytic circuits” (Nature, 2025)
Structures can show the parent of a compound that is named as a salt. Some of the results follow. Hit calls seldom repeat between salt and free forms of one compound.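 In K562 cells expressing nanoluciferase-fused kinases, luminescence was recorded at 4 h intervals between 2 and 18 h, normalized as percent of control with DMSO at 100% and a positive control at 0%. A significant (2 sigma) signal drop marks a time point as decreased. The authors' rule for a hit is not shown and takes in more than the number of time points.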

Chains of the proteins cited; added tags and fusions are not shown.
UniProt P21860, whole entry: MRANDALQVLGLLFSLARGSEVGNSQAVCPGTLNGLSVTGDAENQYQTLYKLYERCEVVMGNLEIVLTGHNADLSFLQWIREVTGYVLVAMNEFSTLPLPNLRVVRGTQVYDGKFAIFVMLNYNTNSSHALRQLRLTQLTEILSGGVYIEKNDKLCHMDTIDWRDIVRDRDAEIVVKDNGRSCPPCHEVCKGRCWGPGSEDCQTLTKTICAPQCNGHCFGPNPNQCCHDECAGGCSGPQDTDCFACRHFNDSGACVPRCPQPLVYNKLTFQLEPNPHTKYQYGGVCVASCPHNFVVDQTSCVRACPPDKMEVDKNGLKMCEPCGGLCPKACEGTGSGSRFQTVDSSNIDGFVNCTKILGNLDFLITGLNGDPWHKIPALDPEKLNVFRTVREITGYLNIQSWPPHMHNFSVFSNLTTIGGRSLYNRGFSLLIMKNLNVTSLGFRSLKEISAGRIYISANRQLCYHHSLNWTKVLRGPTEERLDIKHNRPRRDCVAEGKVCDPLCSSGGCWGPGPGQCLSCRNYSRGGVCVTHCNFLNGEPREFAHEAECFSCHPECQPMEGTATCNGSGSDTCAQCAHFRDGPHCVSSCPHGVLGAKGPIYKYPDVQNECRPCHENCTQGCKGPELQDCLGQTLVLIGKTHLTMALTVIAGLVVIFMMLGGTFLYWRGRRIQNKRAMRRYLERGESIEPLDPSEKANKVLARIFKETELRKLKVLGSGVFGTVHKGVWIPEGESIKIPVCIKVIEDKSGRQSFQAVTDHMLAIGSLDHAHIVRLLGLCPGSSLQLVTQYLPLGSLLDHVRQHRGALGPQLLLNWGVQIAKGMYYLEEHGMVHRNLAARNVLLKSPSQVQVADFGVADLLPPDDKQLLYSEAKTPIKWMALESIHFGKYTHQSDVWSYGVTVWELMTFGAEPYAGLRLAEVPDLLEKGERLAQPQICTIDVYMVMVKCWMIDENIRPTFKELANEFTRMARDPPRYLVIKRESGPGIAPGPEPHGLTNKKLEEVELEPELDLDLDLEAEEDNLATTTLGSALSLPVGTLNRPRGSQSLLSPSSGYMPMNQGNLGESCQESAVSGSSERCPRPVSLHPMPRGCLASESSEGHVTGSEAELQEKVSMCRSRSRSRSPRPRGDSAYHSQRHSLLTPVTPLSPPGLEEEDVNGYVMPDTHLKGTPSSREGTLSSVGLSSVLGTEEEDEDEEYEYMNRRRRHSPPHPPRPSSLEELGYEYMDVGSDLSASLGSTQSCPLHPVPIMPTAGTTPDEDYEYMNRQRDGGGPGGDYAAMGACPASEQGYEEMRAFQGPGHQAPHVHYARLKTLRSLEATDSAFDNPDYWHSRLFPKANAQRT
UniProt Q15303, whole entry R711C: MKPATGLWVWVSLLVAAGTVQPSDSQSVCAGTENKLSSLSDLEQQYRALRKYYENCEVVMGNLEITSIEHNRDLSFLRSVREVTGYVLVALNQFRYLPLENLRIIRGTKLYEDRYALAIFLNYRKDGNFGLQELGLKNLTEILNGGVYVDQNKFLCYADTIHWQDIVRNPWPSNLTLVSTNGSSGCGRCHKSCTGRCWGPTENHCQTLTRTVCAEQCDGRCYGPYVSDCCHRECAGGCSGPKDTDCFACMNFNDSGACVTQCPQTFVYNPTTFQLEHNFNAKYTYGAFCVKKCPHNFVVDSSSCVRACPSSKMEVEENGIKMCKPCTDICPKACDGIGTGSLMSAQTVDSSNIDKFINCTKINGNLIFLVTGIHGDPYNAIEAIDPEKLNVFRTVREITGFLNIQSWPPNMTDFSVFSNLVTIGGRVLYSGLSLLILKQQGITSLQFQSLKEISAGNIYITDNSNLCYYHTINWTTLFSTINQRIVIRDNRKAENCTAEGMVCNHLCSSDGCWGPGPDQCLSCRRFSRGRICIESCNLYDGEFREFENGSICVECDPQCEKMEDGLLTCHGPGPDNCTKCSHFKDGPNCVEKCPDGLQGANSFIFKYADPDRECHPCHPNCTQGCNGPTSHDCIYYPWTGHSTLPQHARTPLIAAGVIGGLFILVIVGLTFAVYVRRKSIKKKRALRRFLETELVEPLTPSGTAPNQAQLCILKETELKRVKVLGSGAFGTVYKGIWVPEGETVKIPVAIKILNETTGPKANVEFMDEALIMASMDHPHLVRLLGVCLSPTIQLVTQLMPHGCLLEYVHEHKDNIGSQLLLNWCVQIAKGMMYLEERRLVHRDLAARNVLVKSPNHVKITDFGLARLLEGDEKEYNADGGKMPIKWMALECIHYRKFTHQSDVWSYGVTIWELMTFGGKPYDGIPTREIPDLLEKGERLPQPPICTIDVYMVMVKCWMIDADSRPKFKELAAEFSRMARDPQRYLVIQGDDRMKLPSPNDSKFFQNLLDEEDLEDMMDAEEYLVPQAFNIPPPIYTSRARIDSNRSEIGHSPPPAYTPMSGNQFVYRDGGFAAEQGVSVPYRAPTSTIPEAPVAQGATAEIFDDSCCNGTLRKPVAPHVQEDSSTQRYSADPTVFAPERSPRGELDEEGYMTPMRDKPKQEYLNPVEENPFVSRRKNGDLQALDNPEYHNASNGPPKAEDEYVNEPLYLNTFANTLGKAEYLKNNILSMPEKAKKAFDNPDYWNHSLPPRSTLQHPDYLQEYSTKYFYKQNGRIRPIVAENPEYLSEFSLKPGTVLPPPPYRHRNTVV

biological target: ERBB3 (UniProt P21860); test: kinase-Nluc reporter destabilization hit call (1 = scored as downregulated) (binary); higher = compound decreases kinase abundance; conditions: 10 µM; K562; 2-18 h

kinase-Nluc reporter destabilization hit call, inactive:
COc1cc2ncnc(Nc3ccc(F)c(Cl)c3)c2cc1OCCCN1CCOCC1 [Gefitinib] 0
C[C@@]1(C(=O)Nc2ccc(F)nc2)CCCN1c1nc(Nc2cc(C3CC3)n[nH]2)c2cccn2n1 0
O=C(Nc1cccc(Cl)c1)Nc1ncc(CCNc2ncnc3ccsc23)s1 [SNS-314 (mesylate)] 0
CC[C@@H]1C(=O)N(C)c2cnc(Nc3ccc(C(=O)NC4CCN(C)CC4)cc3OC)nc2N1C1CCCC1 0
O=S(=O)(c1cccc2c(O)nccc12)N1CCCNCC1 [Hydroxyfasudil (hydrochloride)] 0
Cn1cc(/C=C2\C(=O)Nc3cccnc32)c2ccccc21 0
CC(C)(C)n1nc(-c2ccc(Cl)cc2)c2c(N)ncnc21 0
Cc1ccc(-n2nc(C(C)(C)C)cc2NC(=O)Nc2ccc(OCCN3CCOCC3)c3ccccc23)cc1 [Doramapimod] 0
Nc1ncnc2n[nH]c(-c3ccc(Oc4ccccc4)cc3)c12 [Ibrutinib deacryloylpiperidine] 0
O=S(=O)(c1cccc2c(O)nccc12)N1CCCNCC1 [Hydroxyfasudil] 0
O=C(O)c1ccc(Nc2ncc3c(n2)-c2ccc(Cl)cc2C(c2c(F)cccc2F)=NC3)cc1 0
CCOc1nc(NC(=O)Cc2cc(OC)ccc2OC)cc(N)c1C#N [JNK Inhibitor VIII] 0
COc1nccc(-c2c(-c3ccc(F)cc3)ncn2C2CCNCC2)n1 0
O=C1Cc2c([nH]c3ccc(Br)cc23)-c2ccccc2N1 [Kenpaullone] 0
CNC(=O)c1cc(Oc2ccc(NC(=O)Nc3ccc(Cl)c(C(F)(F)F)c3)cc2)ccn1 [Sorafenib (Tosylate)] 0
COc1cc2ncnc(Nc3cccc(Br)c3)c2cc1OC 0
O=C(NCCCNc1nc(Nc2cccc(CN3CCOCC3)c2)ncc1C1CC1)C1CCC1 0
C=CC(=O)Nc1cc2c(Nc3ccc(F)c(Cl)c3)ncnc2cc1OCCCN1CCOCC1 [Canertinib] 0

biological target: ERBB4_R711C (clone: ERBB4_mut) (UniProt Q15303); test: as above; conditions: 2.5 µM; K562; 2-18 h

kinase-Nluc reporter destabilization hit call, inactive:
CC1(C)CNc2cc(NC(=O)c3cccnc3NCc3ccncc3)ccc21 [Motesanib] 0
CC(C)n1nc(-c2cc3cc(O)ccc3[nH]2)c2c(N)ncnc21 [Torkinib] 0
CCN(CC)CCNC(=O)c1c(C)[nH]c(/C=C2\C(=O)Nc3ccc(F)cc32)c1C [Sunitinib] 0
COc1ccc(CNC(=O)Nc2ncc([N+](=O)[O-])s2)cc1 0
Cc1cc(Nc2cc(N3CCN(C)CC3)nc(/C=C/c3ccccc3)n2)n[nH]1 0
Cc1cc(Nc2cc(N3CCN(C)CC3)nc(/C=C/c3ccccc3)n2)n[nH]1 [ENMD-2076 (Tartrate)] 0
NC(=O)c1c(OCc2c(F)cc(Br)cc2F)nsc1NC(=O)NCCCCN1CCCC1 0
O=C(c1ccc(/C=C/c2n[nH]c3ccccc23)cc1)N1CCNCC1 0
COc1cc2/c(=N/c3ccc(Br)cc3F)nc[nH]c2cc1OCC1CCN(C)CC1 [Vandetanib] 0
Nc1ncnc2c1c(-c1cnc3[nH]ccc3c1)nn2C1CCCC1 0
CC1(C)CNc2cc(NC(=O)c3cccnc3NCc3ccncc3)ccc21 [Motesanib (Diphosphate)] 0
CCOc1cc2ncc(C#N)c(Nc3ccc(F)c(Cl)c3)c2cc1NC(=O)/C=C/CN(C)C [Pelitinib] 0
CNC(=O)c1cc(Oc2ccc(NC(=O)Nc3ccc(Cl)c(C(F)(F)F)c3)cc2)ccn1 [Sorafenib] 0
Cc1cn(-c2cc(NC(=O)c3ccc(C)c(Nc4nccc(-c5cccnc5)n4)c3)cc(C(F)(F)F)c2)cn1 [Nilotinib] 0
Cc1nc(Nc2ncc(C(=O)Nc3c(C)cccc3Cl)s2)cc(N2CCN(CCO)CC2)n1 [Dasatinib] 0
COc1cc(Nc2c(C#N)cnc3cc(OCCCN4CCN(C)CC4)c(OC)cc23)c(Cl)cc1Cl [Bosutinib] 0
CCc1cc2c(cc1-c1cnn(CC(=O)N(C)C)c1)C(C)(C)c1[nH]c3cc(C#N)ccc3c1C2=O 0
CN1CCN(c2nc(C3=C(c4c[nH]c5ccccc45)C(=O)NC3=O)c3ccccc3n2)CC1 [Sotrastaurin] 0
O=C1NCCc2[nH]c(-c3ccncc3)cc21 0
COc1cc(N2CCC(N3CCN(C)CC3)CC2)ccc1Nc1ncc(Cl)c(Nc2ccccc2S(=O)(=O)C(C)C)n1 0

As a working copy, some entries already given.
kinase-Nluc reporter destabilization hit call, inactive:
COc1ccc(CNC(=O)Nc2ncc([N+](=O)[O-])s2)cc1 0
Cc1cc(Nc2cc(N3CCN(C)CC3)nc(/C=C/c3ccccc3)n2)n[nH]1 0
Cc1cc(Nc2cc(N3CCN(C)CC3)nc(/C=C/c3ccccc3)n2)n[nH]1 [ENMD-2076 (Tartrate)] 0
NC(=O)c1c(OCc2c(F)cc(Br)cc2F)nsc1NC(=O)NCCCCN1CCCC1 0

same assay, conditions: 10 µM; K562; 2-18 h

kinase-Nluc reporter destabilization hit call, inactive:
COc1cc2ncnc(Nc3ccc(F)c(Cl)c3)c2cc1OCCCN1CCOCC1 [Gefitinib] 0
C[C@@]1(C(=O)Nc2ccc(F)nc2)CCCN1c1nc(Nc2cc(C3CC3)n[nH]2)c2cccn2n1 0
O=C(Nc1cccc(Cl)c1)Nc1ncc(CCNc2ncnc3ccsc23)s1 [SNS-314 (mesylate)] 0
CC[C@@H]1C(=O)N(C)c2cnc(Nc3ccc(C(=O)NC4CCN(C)CC4)cc3OC)nc2N1C1CCCC1 0
O=S(=O)(c1cccc2c(O)nccc12)N1CCCNCC1 [Hydroxyfasudil (hydrochloride)] 0
Cn1cc(/C=C2\C(=O)Nc3cccnc32)c2ccccc21 0
CC(C)(C)n1nc(-c2ccc(Cl)cc2)c2c(N)ncnc21 0
Cc1ccc(-n2nc(C(C)(C)C)cc2NC(=O)Nc2ccc(OCCN3CCOCC3)c3ccccc23)cc1 [Doramapimod] 0
Nc1ncnc2n[nH]c(-c3ccc(Oc4ccccc4)cc3)c12 [Ibrutinib deacryloylpiperidine] 0
O=S(=O)(c1cccc2c(O)nccc12)N1CCCNCC1 [Hydroxyfasudil] 0
O=C(O)c1ccc(Nc2ncc3c(n2)-c2ccc(Cl)cc2C(c2c(F)cccc2F)=NC3)cc1 0
CCOc1nc(NC(=O)Cc2cc(OC)ccc2OC)cc(N)c1C#N [JNK Inhibitor VIII] 0
COc1nccc(-c2c(-c3ccc(F)cc3)ncn2C2CCNCC2)n1 0
O=C1Cc2c([nH]c3ccc(Br)cc23)-c2ccccc2N1 [Kenpaullone] 0
CNC(=O)c1cc(Oc2ccc(NC(=O)Nc3ccc(Cl)c(C(F)(F)F)c3)cc2)ccn1 [Sorafenib (Tosylate)] 0
COc1cc2ncnc(Nc3cccc(Br)c3)c2cc1OC 0
O=C(NCCCNc1nc(Nc2cccc(CN3CCOCC3)c2)ncc1C1CC1)C1CCC1 0
